The campaign covered roughly 52,000 sequences. About 210 (0.4%) were called active.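 How the source made its calls: active means gene whose silencing raises cell survival under the drug, median off-target-corrected z-score across its silencing RNAs 2 or more; inactive means the rest.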 The list shows a part of the results.
Test: Resistance to Poly (ADP-Ribose) Polymerase inhibitor: Gene Identification via Genome-wide siRNA Screen
Conditions: mouse BRCA2 R2336H ES cells, olaparib, CellTiter-Glo viability; hits give high values
In short: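 Mouse BRCA2 R2336H ES cells were reverse-transfected with siRNA (20 nM final), treated at 48 h with 500 nM olaparib, and read by CellTiter-Glo after 72 h. Scores: MAD-based z per siRNA, median per gene, seed off-target correction.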

With GCCACUCAAUAAUCGCUGUTT against Car10 as the sequence, how does the z-score read?
Its z-score is inactive: 0.317.

With CGGUACUUAGACUGCAUCATT against Agxt2l1 as the sequence, how does the z-score read?
Its z-score is inactive: 1.32.

For CCAGAUAAUAAUUUGGAUGTT against Dhx9, which z-score is on record?
Its z-score is inactive: 0.107.

For GCAGUGAAUGAACCGCUGUTT against Cd59a, which z-score is on record?
The z-score was inactive: 1.27.

Which z-score does the source give for “GGAAGGUGAUGCACUAUUATT against D230016N13Rik” here?
Its z-score is inactive: -1.78.

For GUGUUCAGCACCCUGGCAATT against Klra3, which z-score is on record?
Its z-score is inactive: -0.431.

With GGCUCCUGUACCACCAAAATT against Wnt7b as the sequence, how does the z-score read?
Its z-score is inactive: -2.33.

For GGGAAAAGAUCGACAAAGATT against Plk2, which z-score is on record?
Its z-score is inactive: -0.123.

For “GGAAACAGUAGAAGAUGAGTT against 2810453I06Rik”, which z-score is on record?
The z-score was inactive: 0.994.

Which z-score does the source give for CCUGAAGAUGAAUUAUUGCTT against Plg here?
The z-score was inactive: 2.39.

With GGGCAGAGGCAUUUCUGUATT against Psg23 as the sequence, how does the z-score read?
Its z-score is inactive: 0.868.

With GGUCUCUGAAGACAAAAAATT against Sema4d as the sequence, how does the z-score read?
Its z-score is inactive: -0.0806.

With GGCAAUAGCUUUACCUAUGTT against Lzts2 as the sequence, how does the z-score read?
The z-score was inactive: -0.436.

With “GGUGUAGACUCCAACAUGUTT against 2310044P18Rik” as the sequence, how does the z-score read?
Its z-score is inactive: -0.688.

With “GUGAAAUCUAUGGAGAAUGTT against 1200003C05Rik” as the sequence, how does the z-score read?
The z-score was inactive: 0.0036.

Which z-score does the source give for “GGUCAGCUAUCUAAUGAUUTT against 2310056P07Rik” here?
Its z-score is inactive: -0.459.

For CCCACCUUUGUCAACCAAATT against Pcdhga10, which z-score is on record?
The z-score was inactive: -0.536.

With CCAUAUGGAGUUCUCUAUATT against Bxdc1 as the sequence, how does the z-score read?
Its z-score is inactive: -0.158.

For “CCUAGAGAACUCUACCUGCTT against 2400008B06Rik”, which z-score is on record?
Its z-score is inactive: 0.213.

Which z-score does the source give for GAGUGAGAAAGCCAGAGACTT against Acaa1 here?
The z-score was inactive: -0.208.

Which z-score does the source give for GCCUCUAAGAAUUCAGGAATT against Fxc1 here?
The z-score was inactive: 0.704.

For GUGAGCAGUGCUUUGAUCUTT against Tff2, which z-score is on record?
The z-score was inactive: 0.459.

Which z-score does the source give for GGCAGAAGAAGUAUUCUAUTT against Sgk here?
Its z-score is inactive: 0.208.

Which z-score does the source give for CCAAGUUGGCUUUAAUUGCTT against Abcb4 here?
The z-score was inactive: 1.98.

Which z-score does the source give for GGAUUUUUAGUGUUUGACATT against Rab39 here?
Its z-score is inactive: -0.583.

With GCUUCUACGGCAAAUGAAUTT against Cdr2 as the sequence, how does the z-score read?
Its z-score is inactive: 1.68.

With “GCCAACUACGUAUAUACAUTT against 4921511C20Rik” as the sequence, how does the z-score read?
The z-score was inactive: 0.266.

With GGACUUGAUCAACUCUAUCTT against Supt3h as the sequence, how does the z-score read?
The z-score was inactive: 1.54.

With “GCAAGCUUAGUGAAACUCUTT against 4632417N05Rik” as the sequence, how does the z-score read?
Its z-score is inactive: -0.877.

With GGAAGAAUUAAACGAUUACTT against Crnkl1 as the sequence, how does the z-score read?
Its z-score is inactive: -0.11.

With GCCGCUCUACAUAGAAGUUTT against Uxs1 as the sequence, how does the z-score read?
Its z-score is inactive: 0.314.

Which z-score does the source give for GGAUGACACCAAGUUCAAATT against Kcnb1 here?
The z-score was inactive: -0.0516.

For “GCAACUACCCAAGUGGAAGTT against 2410004F06Rik”, which z-score is on record?
Its z-score is inactive: 1.83.

For GCUGGUGUCGGCAAAUCCUTT against Prkwnk1, which z-score is on record?
Its z-score is inactive: -0.224.

For GGAAAAUGAUAGCAGACAUTT against BC005471, which z-score is on record?
The z-score was inactive: -1.83.

Which z-score does the source give for GCAACCUUGACGUAAAUGUTT against Bsg here?
Its z-score is inactive: -0.876.

With GCAUAGAAACCAUGCACAUTT against Mte1 as the sequence, how does the z-score read?
Its z-score is inactive: 1.28.

Which z-score does the source give for CCUCAAUGACCUUAAAGAATT against Sh3glb1 here?
Its z-score is inactive: 0.443.

For GCCGUGAUGUUGUCACUGATT against Ppp2r5d, which z-score is on record?
The z-score was inactive: -0.706.

For GGUCUUUGAGUUAAACCAUTT against Cdc7, which z-score is on record?
The z-score was inactive: -1.75.

With GCCUCCUCAUAAUCCACAATT against Klk11 as the sequence, how does the z-score read?
The z-score was inactive: 0.924.

Which z-score does the source give for CCAUCGUUGUUUCUUACACTT against Olfr922 here?
The z-score was inactive: 0.837.

Which z-score does the source give for GCAGGUCAAUGGACUUAUGTT against Tal1 here?
The z-score was inactive: -1.66.

Which z-score does the source give for “GCCAAGGUGGAAUUUUUGGTT against 2310016C16Rik” here?
Its z-score is inactive: 0.667.

For GGAAGAGCAUAAAAUGUCATT against Trps1, which z-score is on record?
The z-score was inactive: 0.0255.

With “GGACUUUGUUCUGGAAUCGTT against 2410017I18Rik” as the sequence, how does the z-score read?
Its z-score is inactive: -0.679.

For GGUUCAGUCAAGAAUUGCUTT against Clecsf9, which z-score is on record?
Its z-score is inactive: -1.81.

With CGGCUUGCUACUUUGGAACTT against Gda as the sequence, how does the z-score read?
The z-score was inactive: -0.346.

Which z-score does the source give for GGUGAUCAAACUUUACUCATT against Gfra2 here?
The z-score was inactive: 0.373.

Which z-score does the source give for GCAUAUUAUACCAAGGCCUTT against Tex11 here?
Its z-score is inactive: 0.0477.

Which z-score does the source give for “GGAUCCAGACACCUCAAGATT against 3110035E14Rik” here?
Its z-score is inactive: -0.63.

With GGUCUCUCUGGAAAUAUAATT against Gria2 as the sequence, how does the z-score read?
Its z-score is inactive: -1.26.
